# The list shows a part of the results. Cut-off read from the data, not from the text of the source: active = 2-fold of DMSO or more and inactive = the rest. Single values of this set are uncertain. Some low values are a fixed figure set by the source, not a measured ratio.
# Test system: CM7/1-hgem mouse ES cell-derived cardiomyocytes
# Test: maximal number of mAG-hGem(1/110)-positive cardiomyocytes over 96 h, fold-change vs DMSO; higher = more cardiomyocyte cell cycle activity
# Settings: 1 µM; 96 (max over 12 h time points) h
row,SMILES,maximal number
1,COc1cc2c(cc1OC)C(=O)OC2,inactive: 1
2,CC(=O)N(CC(O)CN(C(C)=O)c1c(I)c(C(=O)NCC(O)CO)c(I)c(C(=O)NCC(O)CO)c1I)c1c(I)c(C(=O)NCC(O)CO)c(I)c(C(=O)NCC(O)CO)c1I (stereo not given),inactive: 1
3,COc1ccc2c(c1OC)OC[C@@H](c1ccc(OC)c(OC)c1OC)C2,inactive: 1
4,CC(C(=O)O)c1ccc2c(c1)Cc1cccnc1O2 (stereo not given),inactive: 1
5,COc1ccc2c(=O)ccoc2c1,inactive: 1
6,O=c1cc(-c2cc(O)c(O)c(O)c2)oc2cc(O)cc(O)c12,inactive: 1
7,C[C@@H]1CC[C@@]2(OC1)O[C@H]1C[C@H]3[C@@H]4CC[C@@H]5C[C@@H](O)CC[C@]5(C)[C@H]4CC[C@]3(C)[C@H]1[C@@H]2C,inactive: 1
8,CC(C)CCC[C@@H](C)[C@H]1CC[C@H]2[C@@H]3CC[C@H]4CC(=O)CC[C@]4(C)[C@H]3CC[C@]12C,inactive: 0.5
9,COc1ccc([C@H]2Oc3cc(OC)cc(OC)c3C[C@H]2O)cc1,inactive: 1
10,"CC(C)CCC[C@@H](C)[C@H]1CC[C@H]2[C@@H]3C[C@@H](O)[C@@]4(O)C[C@@H](O)CC[C@]4(C)[C@H]3CC[C@]12C [CHOLESTAN-3beta,5alpha,6beta-TRIOL]",inactive: 1
11,COc1ccc2cc([C@H](C)CO)ccc2c1,inactive: 1
12,CCCCC(CC)COC(=O)C(C#N)=C(c1ccccc1)c1ccccc1 (stereo not given),inactive: 1
13,CCCCCN(C)CCC(O)(P(=O)(O)O)P(=O)(O)O,inactive: 1
14,C=C1CC[C@H](O)C/C1=C/C=C1\CCC[C@]2(C)[C@@H]([C@H](C)CCCC(C)C)CC[C@@H]12,inactive: 1
15,N#C[C@@H]1C[C@@H]2C[C@@H]2N1C(=O)[C@@H](N)C12CC3CC(CC(O)(C3)C1)C2,inactive: 1
16,COc1c(O)cc2c(c1O)[C@@H]1O[C@H](CO)[C@@H](O)[C@H](O)[C@H]1OC2=O,inactive: 1
17,CCCCCC1C(=O)CCC1CC(=O)O (stereo not given),inactive: 1
18,CC(C)[C@@H](C)/C=C/[C@@H](C)[C@H]1CC[C@H]2C3=CC=C4C[C@@H](O)CC[C@]4(C)[C@H]3CC[C@]12C,inactive: 0.5
19,COc1ccc(-c2c(O)c3c(OC)c4c(cc3oc2=O)OC(C)(C)C=C4)cc1,inactive: 1
20,CCC/C=C\C=C/C(=O)N[C@@H](CC(N)=O)C(=O)NC(CC(N)=O)C(=O)N[C@@H](C(=O)N[C@H](CCCN)C(=O)N[C@@H](C(=O)N[C@@H](C(=O)N[C@@H](C(=O)N[C@H](C(=O)N[C@@H](Cc1ccccc1)C(=O)N[C@H](CCCN)C(=O)NC(C(=O)N[C@H](C(=O)NC(C(=O)NCC(=O)N[C@@H](CC(C)C)C(=O)N[C@H](C)C(=O)NC(C(=O)O)C1CCC(O)C(Cl)C1)C1CCC(O)CC1)[C@H](C)O)C1CCC(O)CC1)[C@H](C)O)C1CCC(O)CC1)C1CCC(O)CC1)[C@H](C)O)C1CCC(O)CC1 (stereo not given in full) [RAMOPLANIN [A2 shown; 2mM]],inactive: 1
21,COc1c(O)cc(O)cc1O,inactive: 1
22,O=C(O)Cc1cc(I)c(Oc2ccc(O)c(I)c2)c(I)c1,active: 2
23,O=c1cc(-c2ccccc2)oc2ccc(O)cc12,inactive: 1
24,O=C(O)c1cc(O)c(O)c(O)c1,inactive: 0
25,COc1cccc(-c2cc(=O)c3cc(OC)ccc3o2)c1,inactive: 1
26,CC(=O)O[C@@]12CO[C@@H]1C[C@H](O)[C@@]1(C)C(=O)[C@H](O)C3=C(C)[C@@H](OC(=O)[C@H](O)[C@@H](NC(=O)OC(C)(C)C)c4ccccc4)C[C@@](O)([C@@H](OC(=O)c4ccccc4)[C@H]21)C3(C)C,inactive: 1
27,CCCCc1oc2ccccc2c1C(=O)c1cc(I)c(OCCN(CC)CC)c(I)c1,inactive: 1
28,COc1cc2ccc(=O)oc2c(OC)c1OC,inactive: 0.5
29,CC1(C)[C@@H](O[C@H]2O[C@H](C(=O)O)[C@@H](O)[C@H](O)[C@H]2O[C@@H]2O[C@H](C(=O)O)[C@@H](O)[C@H](O)[C@H]2O)CC[C@]2(C)[C@H]3C(=O)C=C4[C@@H]5C[C@@](C)(C(=O)O)CC[C@]5(C)CC[C@@]4(C)[C@]3(C)CC[C@@H]12,inactive: 0
30,CC(=O)O[C@H]1C[C@@H](O)C(C)(C)[C@@H]2C[C@@H](OC(C)=O)[C@]3(C)[C@H](CC[C@@]4(C)[C@@H](c5ccoc5)OC(=O)[C@H]5O[C@@]534)[C@@]12C,inactive: 1

# Look-ups from the results shown.
# `O=C(O)Cc1cc(I)c(Oc2ccc(O)c(I)c2)c(I)c1` | maximal number: active: 2
# `COc1ccc2c(c1OC)OC[C@@H](c1ccc(OC)c(OC)c1OC)C2` | maximal number: inactive: 1

# Reference: the supplement of paper PMC9549374
